Laboratory results: PubChem BioAssay AID1224829 (NIAID, 2016)
In all, the deposit lists about 3,800 reagents; this is an unselected part. 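Calls cover raised and lowered translocation; gene median uses one vendor's three siRNAs; qiagen siRNAs acted more weakly than ambion siRNAs.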 Reagents against one gene are numbered here. Reagent sequences are not shown.

Test: 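Follow-up of TLR4-NF-kappaB regulators using six separate siRNAs for each gene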 (follow-up of hits)
Cells: mouse RAW264.7 G9 macrophage reporter cells
Knock-down reagent: single siRNA against mouse genes, 100 nM
Duration: 2 days of siRNA knock-down, then 40 min of LPS before fixing
Conditions: LPS (Salmonella minnesota R595) at 10 ng/ml
Measurement: 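Imaging of GFP-p65 after 40 min of LPS; nuclear over perinuclear ring intensity ratio, scaled to plate median and non-targeting control wells, given as z-score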
Scale: p65 translocation z-score and gene median z-score, per vendor: higher = more nuclear NF-kappaB p65 after LPS
Hit rule: 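An siRNA is called active when the mean z-score of its two replicates is above 2 or below -2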
Calls: active = changed p65 translocation (either direction); inactive = no clear change

Target gene	reagent	siRNA vendor or control pool	p65 translocation z-score, replicate mean	p65 translocation z-score, replicate 1	p65 translocation z-score, replicate 2	gene median z-score, per vendor	Outcome
Krt71	1	ambion single siRNA	-3.68	-3.68		-3.73	active
Krt71	2	ambion single siRNA	-4.14	-4.5	-3.77	-3.73	active
Krt71	3	ambion single siRNA	-2.15	-2.15		-3.73	active
Krt71	4	qiagen single siRNA	2.48	1.26	3.7	0.507	active
Krt71	5	qiagen single siRNA	-0.939	-1.53	-0.343	0.507	inactive
Krt71	6	qiagen single siRNA	1.33	-0.247	2.9	0.507	inactive
Dap3	1	ambion single siRNA	0.131	-0.164	0.425	-0.252	inactive
Dap3	2	ambion single siRNA	0.457	1.25	-0.341	-0.252	inactive
Dap3	3	ambion single siRNA	-4.59	-5.68	-3.49	-0.252	active
Dap3	4	qiagen single siRNA	0.755	-0.169	1.68	0.888	inactive
Dap3	5	qiagen single siRNA	0.891	0.0964	1.68	0.888	inactive
Dap3	6	qiagen single siRNA	1.43	-0.493	3.36	0.888	inactive
Ripk2	1	ambion single siRNA	1.23	0.348	2.11	-1.11	inactive
Ripk2	2	ambion single siRNA	-1.11	-0.799	-1.43	-1.11	inactive
Ripk2	3	ambion single siRNA	-3.74	-4.31	-3.18	-1.11	active
Ripk2	4	qiagen single siRNA	0.875	0.29	1.46	0.875	inactive
Ripk2	5	qiagen single siRNA	3.69	2.83	4.56	0.875	active
Ripk2	6	qiagen single siRNA	-1.32	-2.03	-0.598	0.875	inactive
Atp1b3	1	ambion single siRNA	-2.25	-2.82	-1.69	-2.92	active
Atp1b3	2	ambion single siRNA	-2.32	-3.01	-1.62	-2.92	active
Atp1b3	3	ambion single siRNA	-5.71	-6.43	-4.99	-2.92	active
Atp1b3	4	qiagen single siRNA	1.75	0.22	3.27	0.662	inactive
Atp1b3	5	qiagen single siRNA	1.08	0.242	1.93	0.662	inactive
Atp1b3	6	qiagen single siRNA	0.271	-0.542	1.08	0.662	inactive
Tceal6	1	qiagen single siRNA	2.66	1.94	3.38	0.173	active
Tceal6	2	qiagen single siRNA	-0.48	0.173	-1.13	0.173	inactive
Tceal6	3	qiagen single siRNA	-0.0551	-0.0551		0.173	inactive

Copied from the entries so far (4 entries):
Target gene	reagent	siRNA vendor or control pool	p65 translocation z-score, replicate mean	p65 translocation z-score, replicate 1	p65 translocation z-score, replicate 2	gene median z-score, per vendor	Outcome
Ripk2	1	ambion single siRNA	1.23	0.348	2.11	-1.11	inactive
Ripk2	2	ambion single siRNA	-1.11	-0.799	-1.43	-1.11	inactive
Ripk2	3	ambion single siRNA	-3.74	-4.31	-3.18	-1.11	active
Ripk2	4	qiagen single siRNA	0.875	0.29	1.46	0.875	inactive

The list goes on:
Target gene	reagent	siRNA vendor or control pool	p65 translocation z-score, replicate mean	p65 translocation z-score, replicate 1	p65 translocation z-score, replicate 2	gene median z-score, per vendor	Outcome
P2ry4	1	ambion single siRNA	0.107	-0.277	0.49	0.421	inactive
P2ry4	2	ambion single siRNA	0.694	0.352	1.04	0.421	inactive
P2ry4	3	ambion single siRNA				0.421	inactive
P2ry4	4	qiagen single siRNA	0.909	1.02	0.801	-2.33	inactive
P2ry4	5	qiagen single siRNA	-2.56	-2.33	-2.79	-2.33	active
P2ry4	6	qiagen single siRNA	-2.81	-2.32	-3.3	-2.33	active
Dock2	1	ambion single siRNA	0.251	0.352	0.151	-2.66	inactive
Dock2	2	ambion single siRNA	-2.92	-2.13	-3.7	-2.66	active
Dock2	3	ambion single siRNA	-3.68	-4.17	-3.18	-2.66	active
Dock2	4	qiagen single siRNA	1.31	0.558	2.06	0.0854	inactive
Dock2	5	qiagen single siRNA	-0.295	-0.892	0.302	0.0854	inactive
Dock2	6	qiagen single siRNA	-0.906	-1.68	-0.131	0.0854	inactive
Or4a68	1	ambion single siRNA	-3.14	-3.14		0.0277	active
Or4a68	2	ambion single siRNA	1.77	3.52	0.0277	0.0277	inactive
Or4a68	3	ambion single siRNA	1.03	-1.28	3.33	0.0277	inactive
Or4a68	4	qiagen single siRNA	-0.0749	-0.253	0.103	-0.706	inactive
Or4a68	5	qiagen single siRNA	-1.21	-1.26	-1.16	-0.706	inactive
Or4a68	6	qiagen single siRNA	-0.469	-1.61	0.672	-0.706	inactive
Dgcr8	1	ambion single siRNA	-2.19	-1.78	-2.6	-2.36	active
Dgcr8	2	ambion single siRNA	-2.52	-2.11	-2.93	-2.36	active
Dgcr8	3	ambion single siRNA	-2.3	-1.77	-2.84	-2.36	active
Dgcr8	4	qiagen single siRNA	0.54	1.27	-0.19	-0.467	inactive
Dgcr8	5	qiagen single siRNA	-0.521	-0.511	-0.532	-0.467	inactive
Dgcr8	6	qiagen single siRNA	-1.04	-1.65	-0.423	-0.467	inactive
